Reference: PubChem BioAssay AID504744 (Drosophila RNAi Screening Center, 2011)
In all, the deposit lists about 23,000 reagents; shown is an unselected part of those that have a named target and a result. Of all reagents, 98 (0.43%) got an active call. 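Only hit calls are given; the phospho-dAkt signals, z-scores and hit direction were not deposited.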 The numbers tell different reagents against one gene apart. Names joined by + are all predicted targets of the reagent.

- Screen: 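Uncover factors, including feedback loops, that control dAkt activation in fly cells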 (primary screen)
- Cells: Drosophila Kc167 cells
- Knock-down reagent: long dsRNA against Drosophila genes, 250 ng dsRNA per well of a 384-well plate
- Timing: 3 days of knock-down, then overnight serum-free starvation before stimulation
- Conditions: bovine insulin at 387 nM for 10 minutes after 12 h without serum
- Measurement: 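In-cell antibody fluorescence for phospho-dAkt in each well over DNA-dye signal, with log2 residuals expressed as z-scores adjusted for cell count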
- Rule for the call: 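Hit in the insulin screen when the two-replicate mean z-score is more extreme than plus or minus 2.5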

RhoL
- Outcome: inactive

CG3376
- Outcome: inactive

CG32450
- Outcome: inactive

CG16786
- Outcome: inactive

Or83a
- Outcome: inactive

ND-ACP
- Outcome: inactive

CG13325
- Outcome: inactive

CG32198
- Outcome: inactive

Rubicon
- Outcome: inactive

CG13008 #1
- Outcome: inactive

CG13008 #2
- Outcome: inactive

CG9406
- Outcome: inactive

tj
- Outcome: inactive

Oscillin
- Outcome: inactive

CG31855
- Outcome: inactive

CG8839
- Outcome: inactive

rec #1
- Outcome: inactive

rec #2
- Outcome: inactive

Oct-TyrR
- Outcome: inactive

Ppat-Dpck
- Outcome: inactive

alien
- Outcome: inactive

GILT1
- Outcome: inactive

Cpr49Ab
- Outcome: inactive

CG33969 + fbl
- Outcome: inactive

CG30430
- Outcome: inactive

PolD3
- Outcome: inactive

RpS19b
- Outcome: inactive

casp
- Outcome: inactive

wat
- Outcome: inactive

Jhedup
- Outcome: inactive

CG13720
- Outcome: inactive

Datp
- Outcome: inactive

CG1927
- Outcome: inactive

CG13965
- Outcome: inactive

Shc
- Outcome: inactive

Cyp313a4
- Outcome: inactive

CG15317
- Outcome: inactive

eco
- Outcome: inactive

CG5565
- Outcome: inactive

thoc5
- Outcome: inactive

mdu
- Outcome: inactive

Pcf11
- Outcome: inactive

CG14823
- Outcome: inactive

Boot
- Outcome: inactive

Tb
- Outcome: inactive

Or85c
- Outcome: inactive

pst
- Outcome: inactive

Taf9
- Outcome: inactive

CG14440
- Outcome: inactive

retn
- Outcome: inactive

CG5087
- Outcome: inactive

Vps4
- Outcome: inactive

S-Lap5
- Outcome: inactive

GstO3
- Outcome: inactive

Acbp6
- Outcome: inactive

Mp20
- Outcome: inactive

AIF
- Outcome: inactive

Oatp30B
- Outcome: inactive

Lst8
- Outcome: active

alphaTub67C
- Outcome: inactive

Cdc50
- Outcome: inactive

pen-2
- Outcome: inactive

TAF1B
- Outcome: inactive

Nost #1
- Outcome: inactive

Nost #2
- Outcome: inactive

CG7166
- Outcome: inactive

tant
- Outcome: inactive

sad
- Outcome: inactive

Drep1
- Outcome: inactive

mbl #1
- Outcome: inactive

mbl #2
- Outcome: inactive

mbl #3
- Outcome: inactive

Tim13
- Outcome: inactive
